From the supplement of paper PMC10849652
This is one part of the list.

By UniProt entry, the sequences of proteins in these tests, tags left out. Where a name states a change or a piece, a line headed by the entry shows the natural chain unless it says otherwise.
UniProt P16989, whole entry, looked up: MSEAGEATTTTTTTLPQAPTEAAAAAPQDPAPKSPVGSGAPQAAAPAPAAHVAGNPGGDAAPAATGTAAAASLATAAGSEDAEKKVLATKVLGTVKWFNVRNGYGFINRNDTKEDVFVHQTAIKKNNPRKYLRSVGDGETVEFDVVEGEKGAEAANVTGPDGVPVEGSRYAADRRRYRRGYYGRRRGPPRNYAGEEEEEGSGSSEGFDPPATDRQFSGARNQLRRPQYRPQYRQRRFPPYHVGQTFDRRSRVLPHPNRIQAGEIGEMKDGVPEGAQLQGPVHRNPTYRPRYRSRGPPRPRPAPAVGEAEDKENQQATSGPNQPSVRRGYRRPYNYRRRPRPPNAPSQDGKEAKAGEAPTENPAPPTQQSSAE
UniProt Q86U90: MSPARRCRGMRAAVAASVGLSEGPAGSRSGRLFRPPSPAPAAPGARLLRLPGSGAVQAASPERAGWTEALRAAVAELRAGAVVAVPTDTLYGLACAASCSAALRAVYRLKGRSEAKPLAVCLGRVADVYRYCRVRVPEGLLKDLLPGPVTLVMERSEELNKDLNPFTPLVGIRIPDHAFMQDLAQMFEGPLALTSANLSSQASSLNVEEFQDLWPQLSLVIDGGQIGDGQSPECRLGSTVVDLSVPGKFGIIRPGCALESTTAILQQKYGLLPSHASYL
UniProt Q5BJH7: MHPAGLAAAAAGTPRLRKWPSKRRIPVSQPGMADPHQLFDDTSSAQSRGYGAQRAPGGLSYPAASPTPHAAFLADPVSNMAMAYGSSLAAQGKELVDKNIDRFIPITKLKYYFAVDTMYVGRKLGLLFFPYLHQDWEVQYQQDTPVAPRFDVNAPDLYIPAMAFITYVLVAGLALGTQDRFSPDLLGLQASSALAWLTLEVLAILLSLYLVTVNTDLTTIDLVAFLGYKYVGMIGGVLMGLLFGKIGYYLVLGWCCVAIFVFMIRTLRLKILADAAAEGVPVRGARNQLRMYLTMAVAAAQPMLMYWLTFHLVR
UniProt Q9UPT8: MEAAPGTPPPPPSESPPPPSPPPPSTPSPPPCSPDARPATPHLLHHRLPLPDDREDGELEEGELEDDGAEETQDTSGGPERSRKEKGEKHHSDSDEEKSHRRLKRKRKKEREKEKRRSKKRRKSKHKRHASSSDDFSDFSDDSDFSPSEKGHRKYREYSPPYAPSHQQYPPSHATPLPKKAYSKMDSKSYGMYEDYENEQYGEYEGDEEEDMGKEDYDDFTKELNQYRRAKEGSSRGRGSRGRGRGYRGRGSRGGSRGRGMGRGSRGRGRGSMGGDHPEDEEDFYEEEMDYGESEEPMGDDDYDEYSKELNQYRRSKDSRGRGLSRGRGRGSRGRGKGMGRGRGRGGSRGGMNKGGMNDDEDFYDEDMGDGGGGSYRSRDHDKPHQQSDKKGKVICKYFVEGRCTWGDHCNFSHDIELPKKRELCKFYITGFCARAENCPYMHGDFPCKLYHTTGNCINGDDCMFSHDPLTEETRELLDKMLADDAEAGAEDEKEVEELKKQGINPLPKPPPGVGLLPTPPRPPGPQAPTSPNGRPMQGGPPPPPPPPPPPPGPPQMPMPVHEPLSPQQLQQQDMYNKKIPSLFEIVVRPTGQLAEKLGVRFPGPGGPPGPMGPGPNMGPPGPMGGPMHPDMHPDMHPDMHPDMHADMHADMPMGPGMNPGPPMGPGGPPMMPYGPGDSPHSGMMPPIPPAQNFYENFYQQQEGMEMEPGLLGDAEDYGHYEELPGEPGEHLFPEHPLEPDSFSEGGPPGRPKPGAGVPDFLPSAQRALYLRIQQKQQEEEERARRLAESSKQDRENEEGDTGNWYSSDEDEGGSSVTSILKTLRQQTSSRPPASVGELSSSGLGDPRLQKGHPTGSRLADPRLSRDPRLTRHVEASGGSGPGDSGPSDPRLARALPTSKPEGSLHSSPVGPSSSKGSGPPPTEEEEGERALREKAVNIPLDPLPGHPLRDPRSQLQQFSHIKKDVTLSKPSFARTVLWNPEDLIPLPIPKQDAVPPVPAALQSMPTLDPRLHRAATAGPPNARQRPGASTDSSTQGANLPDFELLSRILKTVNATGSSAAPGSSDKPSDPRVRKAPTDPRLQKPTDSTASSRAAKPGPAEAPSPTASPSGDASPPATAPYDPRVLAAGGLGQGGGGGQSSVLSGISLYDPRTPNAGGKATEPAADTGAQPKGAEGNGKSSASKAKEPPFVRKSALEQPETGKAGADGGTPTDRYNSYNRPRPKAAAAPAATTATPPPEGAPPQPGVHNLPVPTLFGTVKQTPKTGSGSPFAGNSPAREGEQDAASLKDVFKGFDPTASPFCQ
UniProt Q7Z739: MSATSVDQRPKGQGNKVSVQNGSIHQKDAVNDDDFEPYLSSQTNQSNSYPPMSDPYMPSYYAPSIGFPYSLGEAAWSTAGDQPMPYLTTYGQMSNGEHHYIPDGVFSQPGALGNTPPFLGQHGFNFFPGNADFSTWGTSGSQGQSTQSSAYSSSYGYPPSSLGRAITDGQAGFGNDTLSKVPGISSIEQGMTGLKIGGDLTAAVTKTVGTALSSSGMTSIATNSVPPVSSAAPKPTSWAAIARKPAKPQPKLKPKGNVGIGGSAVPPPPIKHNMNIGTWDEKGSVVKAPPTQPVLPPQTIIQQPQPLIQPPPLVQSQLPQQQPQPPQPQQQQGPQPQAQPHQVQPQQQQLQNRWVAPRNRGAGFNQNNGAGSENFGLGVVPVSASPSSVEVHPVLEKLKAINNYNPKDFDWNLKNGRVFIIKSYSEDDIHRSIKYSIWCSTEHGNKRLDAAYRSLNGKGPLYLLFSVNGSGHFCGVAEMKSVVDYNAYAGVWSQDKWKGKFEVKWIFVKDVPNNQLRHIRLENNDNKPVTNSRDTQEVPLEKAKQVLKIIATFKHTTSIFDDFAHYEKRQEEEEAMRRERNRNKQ
UniProt P54577: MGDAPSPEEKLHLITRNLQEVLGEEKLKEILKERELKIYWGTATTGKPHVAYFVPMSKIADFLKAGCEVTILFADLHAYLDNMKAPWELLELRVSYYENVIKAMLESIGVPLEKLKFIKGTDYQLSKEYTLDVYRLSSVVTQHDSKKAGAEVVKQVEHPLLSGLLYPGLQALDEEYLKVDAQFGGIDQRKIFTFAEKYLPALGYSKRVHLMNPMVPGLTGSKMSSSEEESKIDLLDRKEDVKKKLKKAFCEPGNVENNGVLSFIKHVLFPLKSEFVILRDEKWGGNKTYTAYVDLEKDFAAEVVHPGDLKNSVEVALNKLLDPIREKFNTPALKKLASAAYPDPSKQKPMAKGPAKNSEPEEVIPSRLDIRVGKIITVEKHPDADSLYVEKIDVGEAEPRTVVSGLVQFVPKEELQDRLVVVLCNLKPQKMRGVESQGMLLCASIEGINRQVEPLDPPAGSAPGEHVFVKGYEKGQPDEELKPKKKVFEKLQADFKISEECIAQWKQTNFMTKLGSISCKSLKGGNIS
UniProt Q8IY57: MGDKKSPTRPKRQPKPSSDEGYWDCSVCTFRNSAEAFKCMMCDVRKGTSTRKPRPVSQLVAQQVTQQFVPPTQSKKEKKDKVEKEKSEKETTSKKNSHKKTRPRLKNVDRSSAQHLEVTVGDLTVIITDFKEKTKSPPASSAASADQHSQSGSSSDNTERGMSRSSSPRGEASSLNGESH
UniProt P52747: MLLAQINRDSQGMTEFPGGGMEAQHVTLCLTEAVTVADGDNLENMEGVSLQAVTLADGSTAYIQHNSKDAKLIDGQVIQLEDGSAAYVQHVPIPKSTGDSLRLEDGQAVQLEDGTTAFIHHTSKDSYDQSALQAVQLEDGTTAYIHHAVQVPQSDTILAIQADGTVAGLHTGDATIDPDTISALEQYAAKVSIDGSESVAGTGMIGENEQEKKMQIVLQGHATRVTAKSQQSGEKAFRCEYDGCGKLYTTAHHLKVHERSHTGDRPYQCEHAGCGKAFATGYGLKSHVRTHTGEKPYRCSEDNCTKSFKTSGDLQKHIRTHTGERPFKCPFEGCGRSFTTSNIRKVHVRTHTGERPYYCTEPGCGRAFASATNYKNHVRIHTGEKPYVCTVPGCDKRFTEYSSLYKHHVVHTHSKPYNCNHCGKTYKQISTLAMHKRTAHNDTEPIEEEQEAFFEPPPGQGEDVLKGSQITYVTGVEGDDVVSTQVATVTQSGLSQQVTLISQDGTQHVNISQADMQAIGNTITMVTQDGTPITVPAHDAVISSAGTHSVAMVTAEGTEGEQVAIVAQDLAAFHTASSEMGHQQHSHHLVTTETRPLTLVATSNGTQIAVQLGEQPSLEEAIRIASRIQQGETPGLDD

Experiments:
Experiment in all cases: log2 fold change, soluble protein after heating vs DMSO (PISA); higher = thermal stabilisation; K562 cells, 10 uM, 30 min; active = over 0.2 and 3.5 SD of the protein, either way, in both replicates (recomputed)
[1] = compound: CC[C@@H]1C(=O)N(C)c2cnc(Nc3ccc(C(=O)NC4CCN(C)CC4)cc3OC)nc2N1C1CCCC1
Procedure, shortened: (§1)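 Soluble protein was quantified by TMTpro 16plex LC-MS/MS after channel sums were equalised. It was obtained as the supernatant after 21,000xg for 90 min from pooled aliquots of K562 cells (2×10^6 cells/mL, 10 μM compound, 30 min) heated for 3 min across 48°C-58°C and extracted in PBS with 0.5% NP-40 at 4°C. Thermal stability values are relative to control samples and come from duplicates. They are given as log2 fold changes.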

[2] = compound: CC[C@@H]1C(=O)N(C)c2cnc(Nc3ccc(C(=O)N[C@H]4CC[C@H](N5CCN(CC6CC6)CC5)CC4)cc3OC)nc2N1C(C)C [volasertib]
Procedure, shortened: as §1

[3] = compound: CC[C@H](C)N1C=C(C2=C(C=C(C=C21)C3=CN=C(C=C3)N4CCNCC4)C(=O)NCC5=C(C=C(NC5=O)C)C)C
Procedure, shortened: as §1

[4] = compound: CC[C@H](C)[C@@H](C(=O)N[C@@H]([C@@H](C)O)C(=O)N[C@@H](CC(C)C)C(=O)[C@]1(CO1)C)NC(=O)[C@H]([C@@H](C)CC)N(C)C(=O)C [epoxomicin]
Procedure, shortened: as §1

[5] = compound: CCn1c(C(=O)N(C2CC2)C2CC2)cc2c3c(ncn3C)c(Nc3cc(C)n(C)n3)nc21
Procedure, shortened: as §1

[6] = compound: CCn1cc(-c2ccnc3[nH]c(-c4cccc(CN(C)C)c4)cc23)c(-c2ccc(NC(=O)N(C)C)cc2)n1
Procedure, shortened: as §1

[7] = compound: CN(C)CC(=O)Nc1ccc2[nH]c(=O)c3ccccc3c2c1
Procedure, shortened: as §1

[8] = compound: CN(CCOC1=CC=C(C=C1)C[C@H]2C(=O)NC(=O)S2)C3=CC=CC=N3 (racemic) [rosiglitazone]
Procedure, shortened: as §1

[9] = compound: CN1C2=C(C3=C1C(=O)N(N=C3)CC4=CC(=CC=C4)N)SC(=C2)S(=O)C
Procedure, shortened: as §1

[10] = compound: CN1CCC(CNc2ccc3ncc(-c4cccc(OC(F)(F)F)c4)n3n2)CC1
Procedure, shortened: as §1

[11] = compound: CN1CCN(CCOc2cc(OC3CCOCC3)c3c(Nc4c(Cl)ccc5c4OCO5)ncnc3c2)CC1 [saracatinib]
Procedure, shortened: as §1

[12] = compound: CN1CCN(c2nc(C3=C(c4c[nH]c5ccccc45)C(=O)NC3=O)c3ccccc3n2)CC1 [sotrastaurin]
Procedure, shortened: as §1

[13] = compound: CN1CC[C@H](c2c(O)cc(O)c3c(=O)cc(-c4ccccc4Cl)oc23)[C@H](O)C1 [alvocidib]
Procedure, shortened: as §1

[14] = compound: CN1CCc2c(c3ccccc3n2Cc2ccc(C(=O)NO)cc2)C1 [Tubastatin A]
Procedure, shortened: as §1

[15] = compound: CNC(=O)C1=CC=CC=C1NC2=NC(=NC=C2Cl)NC3=C(C=C(C=C3)N4CCOCC4)OC
Procedure, shortened: as §1

[16] = compound: CNC(=O)c1ccc(Nc2ncc(C(F)(F)F)c(NCc3nccnc3N(C)S(C)(=O)=O)n2)cc1 [defactinib]
Procedure, shortened: as §1

[17] = compound: CNCc1ccc(-c2[nH]c3cc(F)cc4c3c2CCNC4=O)cc1 [rucaparib]
Procedure, shortened: as §1

[18] = compound: CNc1nc(-c2ccc3c(N)n[nH]c3c2)cc(N2C[C@@H](C(=O)NC3CCCCC3)CC[C@H]2C)n1
Procedure, shortened: as §1

[19] = compound: COC(=O)N[C@@H](C)CNc1nccc(-c2cn(C(C)C)nc2-c2cc(Cl)cc(NS(C)(=O)=O)c2F)n1 [encorafenib]
Procedure, shortened: as §1

[20] = compound: COC(=O)[C@H](CCSC)NC(=O)C1=C(C=C(C=C1)NC[C@H](CS)N)C2=CC=CC=C2
Procedure, shortened: as §1

Measured: log2 fold change

YBX3 (UniProt P16989)
inactive: [1] 0.252 | [2] 0.38 | [3] -0.016 | [4] -0.194 | [5] 0.046 | [6] 0.194 | [7] -0.085 | [8] -0.154 | [9] 0.165 | [10] 0.301 | [11] -0.01 | [12] 0.058 | [13] 0.242 | [14] 0.012 | [15] 0.044 | [16] 0.251 | [17] 0.249 | [18] 0.028 | [19] 0.028 | [20] 0.048

YRDC (UniProt Q86U90)
inactive: [1] -0.01 | [2] -0.041 | [3] 0.004 | [4] -0.057 | [5] 0.005 | [6] -0.011 | [7] 0.008 | [8] 0.029 | [9] -0.044 | [10] -0.121 | [11] -0.007 | [12] 0.027 | [13] -0.046 | [14] 0.054 | [15] -0.029 | [16] -0.019 | [17] -0.006 | [18] -0.041 | [19] -0.015 | [20] 0.013

YIF1B (UniProt Q5BJH7)
inactive: [1] -0.028 | [2] -0.013 | [3] -0.012 | [4] -0.022 | [5] 0.024 | [6] -0.006 | [7] 0.076 | [8] 0.041 | [9] -0.058 | [10] 0.1 | [11] 0.209 | [12] -0.011 | [13] -0.049 | [14] 0.001 | [15] 0.009 | [16] 0.076 | [17] -0.015 | [18] -0.025 | [19] 0.001 | [20] -0.033

ZC3H4 (UniProt Q9UPT8)
inactive: [1] 0.164 | [2] 0.435 | [3] -0.001 | [4] -0.171 | [5] -0.011 | [6] 0.174 | [7] -0.069 | [8] -0.102 | [9] 0.197 | [10] 0.18 | [11] -0.025 | [12] 0.043 | [13] 0.227 | [14] 0.057 | [15] -0.015 | [16] 0.216 | [17] 0.267 | [18] 0.042 | [19] 0.042 | [20] 0

YTHDF3 (UniProt Q7Z739)
inactive: [1] 0.074 | [2] -0.027 | [3] 0.03 | [4] -0.031 | [5] 0.015 | [6] 0.005 | [7] 0.015 | [8] -0.012 | [9] -0.009 | [10] 0 | [11] 0.01 | [12] 0.025 | [13] -0.01 | [14] 0.018 | [15] -0.008 | [16] -0.013 | [17] -0.001 | [18] -0.012 | [19] -0.007 | [20] -0.024

YARS (UniProt P54577)
inactive: [1] -0.04 | [2] -0.193 | [3] 0.095 | [4] -0.023 | [5] -0.045 | [6] 0.009 | [7] 0.057 | [8] 0.063 | [9] 0.045 | [10] -0.148 | [11] -0.088 | [12] -0.133 | [13] -0.026 | [14] 0.018 | [15] 0.024 | [16] -0.051 | [17] 0.156 | [18] 0.046 | [19] 0.115 | [20] -0.062

YAF2 isoform 5 (UniProt Q8IY57)
inactive: [1] 0.071 | [2] 0.012 | [3] 0.123 | [4] 0.084 | [5] -0.077 | [6] 0 | [7] -0.211 | [8] -0.091 | [9] -0.133 | [10] 0.125 | [11] 0.115 | [12] -0.082 | [13] 0.009 | [14] 0.026 | [15] -0.067 | [16] -0.38 | [17] 0.099 | [18] 0.139 | [19] -0.012 | [20] -0.023

ZNF143 (UniProt P52747)
inactive: [1] -0.018 | [3] 0.068 | [4] 0.026 | [6] -0.102 | [7] -0.025 | [9] -0.003 | [10] -0.109 | [11] 0.094 | [12] -0.031 | [14] -0.031 | [15] -0.084 | [16] -0.171 | [17] -0.008 | [18] -0.118 | [19] 0.014 | [20] 0.013
active: [2] -0.289
